Test results: publication PMC7673040
No constants are given. Whether binding was seen depends on the method and setting. Some entries that bind do so weakly or less than the wild type.

Target: T1, SRP72 (human) (UniProt O76094)
T1 sequence: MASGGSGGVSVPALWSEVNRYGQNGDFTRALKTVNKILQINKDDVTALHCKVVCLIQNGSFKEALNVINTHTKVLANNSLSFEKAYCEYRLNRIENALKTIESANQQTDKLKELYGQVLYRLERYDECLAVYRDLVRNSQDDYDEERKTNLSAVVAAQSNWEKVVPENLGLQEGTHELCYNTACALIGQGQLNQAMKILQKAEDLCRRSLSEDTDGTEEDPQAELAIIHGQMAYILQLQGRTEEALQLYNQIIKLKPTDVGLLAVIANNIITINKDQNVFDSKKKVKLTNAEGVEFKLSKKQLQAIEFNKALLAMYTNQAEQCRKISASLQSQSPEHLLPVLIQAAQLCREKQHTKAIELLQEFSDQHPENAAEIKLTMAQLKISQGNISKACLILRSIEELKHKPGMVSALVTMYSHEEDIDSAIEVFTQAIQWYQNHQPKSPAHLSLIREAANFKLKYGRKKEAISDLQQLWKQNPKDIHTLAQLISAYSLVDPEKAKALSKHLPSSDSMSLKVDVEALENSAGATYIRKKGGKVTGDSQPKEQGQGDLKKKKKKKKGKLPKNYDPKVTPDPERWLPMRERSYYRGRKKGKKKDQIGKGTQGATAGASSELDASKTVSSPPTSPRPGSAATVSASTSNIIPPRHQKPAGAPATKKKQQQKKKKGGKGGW
Assay: co-purification; SRP68 and SRP72 co-expressed in yeast; Ni-Sepharose and MonoS

binding: binds
B1: SRP68 (protein, UniProt Q9UHB9 1-627)
chain: MAAEKQVPGGGGGGGSGGGGGSGGGGSGGGRGAGGEENKENERPSAGSKANKEFGDSLSLEILQIIKESQQQHGLRHGDFQRYRGYCSRRQRRLRKTLNFKMGNRHKFTGKKVTEELLTDNRYLLLVLMDAERAWSYAMQLKQEANTEPRKRFHLLSRLRKAVKHAEELERLCESNRVDAKTKLEAQAYTAYLSGMLRFEHQEWKAAIEAFNKCKTIYEKLASAFTEEQAVLYNQRVEEISPNIRYCAYNIGDQSAINELMQMRLRSGGTEGLLAEKLEALITQTRAKQAATMSEVEWRGRTVPVKIDKVRIFLLGLADNEAAIVQAESEETKERLFESMLSECRDAIQVVREELKPDQKQRDYILEGEPGKVSNLQYLHSYLTYIKLSTAIKRNENMAKGLQRALLQQQPEDDSKRSPRPQDLIRLYDIILQNLVELLQLPGLEEDKAFQKEIGLKTLVFKAYRCFFIAQSYVLVKKWSEALVLYDRVLKYANEVNSDAGAFKNSLKDLPDVQELITQVRSEKCSLQAAAILDANDAHQTETSSSQVKDNKPLVERFETFCLDPSLVTKQANLVHFPPGFQPIPCKPLFFDLALNHVAFPPLEDKLEQKTKSGLTGYIKGIFGFRS
